Source: the supplement of paper PMC8728848
The other results are listed elsewhere or left out.

How the values were obtained:
Test in all cases: glycan array binding signal (z-score within array); higher = stronger binding
Details in all cases: glycan notation: IUPAC condensed, linker removed
Fuc(a1-2)Gal = biological target: Fuc(a1-2)Gal
Outline: (§1)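 Glycan array binding is given as a within-array Z-score, which can be read as non-binding when negative. The arrays, 3228 of them, came from the Consortium for Functional Glycomics database and were retained only where the protein sequence was available. Z-scores were averaged across arrays of the same protein sequence at different concentrations or buffers and across linkers.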

Fuc(a1-2)Gal(b1-3)GalNAc = biological target: Fuc(a1-2)Gal(b1-3)GalNAc
Outline: as §1

[1] = biological target: Fuc(a1-2)Gal(b1-3)GalNAc(a1-3)[Fuc(a1-2)]Gal(b1-4)Glc
Outline: as §1

[2] = biological target: Fuc(a1-2)Gal(b1-3)GalNAc(a1-3)[Fuc(a1-2)]Gal(b1-4)GlcNAc
Outline: as §1

[3] = biological target: Fuc(a1-2)Gal(b1-3)GalNAc(b1-3)Gal
Outline: as §1

[4] = biological target: Fuc(a1-2)Gal(b1-3)GalNAc(b1-3)Gal(a1-4)Gal(b1-4)Glc
Outline: as §1

[5] = biological target: Fuc(a1-2)Gal(b1-3)GalNAc(b1-4)[Neu5Ac(a2-3)]Gal(b1-4)Glc
Outline: as §1

Fuc(a1-2)Gal(b1-3)GlcNAc = biological target: Fuc(a1-2)Gal(b1-3)GlcNAc
Outline: as §1

[6] = biological target: Fuc(a1-2)Gal(b1-3)GlcNAc(b1-2)Man(a1-3)[Fuc(a1-2)Gal(b1-3)GlcNAc(b1-2)Man(a1-6)]Man(b1-4)GlcNAc(b1-4)GlcNAc
Outline: as §1

[7] = biological target: Fuc(a1-2)Gal(b1-3)GlcNAc(b1-2)Man(a1-3)[Fuc(a1-2)Gal(b1-3)GlcNAc(b1-2)Man(a1-6)]Man(b1-4)GlcNAc(b1-4)[Fuc(a1-6)]GlcNAc
Outline: as §1

[8] = biological target: Fuc(a1-2)Gal(b1-3)GlcNAc(b1-3)Gal(b1-4)Glc
Outline: as §1

[9] = biological target: Fuc(a1-2)Gal(b1-3)GlcNAc(b1-3)GalNAc
Outline: as §1

[10] = biological target: Fuc(a1-2)Gal(b1-3)GlcNAc(b1-3)[Fuc(a1-3)[Gal(b1-4)]GlcNAc(b1-6)]Gal(b1-4)Glc
Outline: as §1

[11] = biological target: Fuc(a1-2)Gal(b1-3)GlcNAc(b1-3)[Gal(b1-4)GlcNAc(b1-6)]Gal(b1-4)Glc
Outline: as §1

[12] = biological target: Fuc(a1-2)Gal(b1-3)GlcNAc(b1-3)[Neu5Ac(a2-6)Gal(b1-4)GlcNAc(b1-6)]Gal(b1-4)Glc
Outline: as §1

[13] = biological target: Fuc(a1-2)Gal(b1-3)[Fuc(a1-4)]GlcNAc
Outline: as §1

[14] = biological target: Fuc(a1-2)Gal(b1-3)[Fuc(a1-4)]GlcNAc(b1-2)Man(a1-3)[Fuc(a1-2)Gal(b1-3)[Fuc(a1-4)]GlcNAc(b1-2)Man(a1-6)]Man(b1-4)GlcNAc(b1-4)GlcNAc
Outline: as §1

[15] = biological target: Fuc(a1-2)Gal(b1-3)[Fuc(a1-4)]GlcNAc(b1-3)[Fuc(a1-3)[Gal(b1-4)]GlcNAc(b1-6)]Gal(b1-4)Glc
Outline: as §1

[16] = biological target: Fuc(a1-2)Gal(b1-3)[Fuc(a1-4)]GlcNAc(b1-3)[Gal(b1-4)GlcNAc(b1-6)]Gal(b1-4)Glc
Outline: as §1

Fuc(a1-2)Gal(b1-4)Glc = biological target: Fuc(a1-2)Gal(b1-4)Glc
Outline: as §1

Fuc(a1-2)Gal(b1-4)Glc6S = biological target: Fuc(a1-2)Gal(b1-4)Glc6S
Outline: as §1

Fuc(a1-2)Gal(b1-4)GlcNAc = biological target: Fuc(a1-2)Gal(b1-4)GlcNAc
Outline: as §1

[17] = biological target: Fuc(a1-2)Gal(b1-4)GlcNAc(b1-2)Man(a1-3)[Fuc(a1-2)Gal(b1-4)GlcNAc(b1-2)Man(a1-6)]Man(b1-4)GlcNAc(b1-4)GlcNAc
Outline: as §1

[18] = biological target: Fuc(a1-2)Gal(b1-4)GlcNAc(b1-2)Man(a1-3)[Fuc(a1-2)Gal(b1-4)GlcNAc(b1-2)Man(a1-6)]Man(b1-4)GlcNAc(b1-4)[Fuc(a1-6)]GlcNAc
Outline: as §1

[19] = biological target: Fuc(a1-2)Gal(b1-4)GlcNAc(b1-2)[Fuc(a1-2)Gal(b1-4)GlcNAc(b1-4)]Man(a1-3)[Fuc(a1-2)Gal(b1-4)GlcNAc(b1-2)Man(a1-6)]Man(b1-4)GlcNAc(b1-4)GlcNAc
Outline: as §1

[20] = biological target: Fuc(a1-2)Gal(b1-4)GlcNAc(b1-3)Gal(b1-4)GlcNAc
Outline: as §1

[21] = biological target: Fuc(a1-2)Gal(b1-4)GlcNAc(b1-3)Gal(b1-4)GlcNAc(b1-3)Gal(b1-4)GlcNAc
Outline: as §1

[22] = biological target: Fuc(a1-2)Gal(b1-4)GlcNAc(b1-3)GalNAc
Outline: as §1

[23] = biological target: Fuc(a1-2)Gal(b1-4)GlcNAc(b1-3)[Fuc(a1-2)Gal(b1-4)GlcNAc(b1-6)]GalNAc
Outline: as §1

[24] = biological target: Fuc(a1-2)Gal(b1-4)GlcNAc6S
Outline: as §1

B1: Intelectin 1 (Homo sapiens), Q8WWA0 (protein)
chain: MNQLSFLLFLIATTRGWSTDEANTYFKEWTCSSSPSLPRSCKEIKDECPSAFDGLYFLRTENGVIYQTFCDMTSGGGGWTLVASVHENDMRGKCTVGDRWSSQQGSKAVYPEGDGNWANYNTFGSAEAATSDDYKNPGYYDIQAKDLGIWHVPNKSPMQHWRNSSLLRYRTDTGFLQTLGHNLFGIYQKYPVKYGEGKCWTDNGPVIPVVYDFGDAQKTASYYSPYGQREFTAGFVQFRVFNNERAANALCAGMRVTGCNTEHHCIGGGGYFPEASPQQCGDFSGFDWSGYGTHVGYSSSREITEAAVLLFYR
glycan array binding signal (z-score) (Fuc(a1-2)Gal): 2.53
glycan array binding signal (z-score) (Fuc(a1-2)Gal(b1-3)GalNAc): -0.327
glycan array binding signal (z-score) [1]: -0.213
glycan array binding signal (z-score) [2]: -0.505
glycan array binding signal (z-score) [3]: -0.951
glycan array binding signal (z-score) [4]: 0.742
glycan array binding signal (z-score) [5]: -0.356
glycan array binding signal (z-score) (Fuc(a1-2)Gal(b1-3)GlcNAc): 0.069
glycan array binding signal (z-score) [6]: 0.043
glycan array binding signal (z-score) [7]: -0.194
glycan array binding signal (z-score) [8]: -0.267
glycan array binding signal (z-score) [9]: 0.22
glycan array binding signal (z-score) [10]: 0.755
glycan array binding signal (z-score) [11]: -0.056
glycan array binding signal (z-score) [12]: 4.21
glycan array binding signal (z-score) [13]: 0.332
glycan array binding signal (z-score) [14]: 0.254
glycan array binding signal (z-score) [15]: -0.162
glycan array binding signal (z-score) [16]: -0.708
glycan array binding signal (z-score) (Fuc(a1-2)Gal(b1-4)Glc): -0.58
glycan array binding signal (z-score) (Fuc(a1-2)Gal(b1-4)Glc6S): 1.1
glycan array binding signal (z-score) (Fuc(a1-2)Gal(b1-4)GlcNAc): 0.597
glycan array binding signal (z-score) [17]: 0.466
glycan array binding signal (z-score) [18]: -0.031
glycan array binding signal (z-score) [19]: 1.21
glycan array binding signal (z-score) [20]: -0.793
glycan array binding signal (z-score) [21]: -0.07
glycan array binding signal (z-score) [22]: 0.21
glycan array binding signal (z-score) [23]: -0.304
glycan array binding signal (z-score) [24]: -0.781
